# PubChem BioAssay AID662 (National Center for Advancing Translational Sciences (NCATS), 2007)
# The other results are listed elsewhere or left out. Shown are side measurements of this screen, not its main read-out; they come without a call. Compounds called inactive in the main read-out are mostly missing here. Words in brackets tell the shape of the fitted curve; partial curves, single points and poor fits give uncertain potencies.
# Assay: Cell signaling CRE-BLA (Fsk stim)
# Settings: CHO CRE-bla reporter (cAMP response element driving beta-lactamase), forskolin EC10, beta-lactamase ratio; measured here: 460 nm blue channel
# Method in brief: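 qHTS titration format; CRE-bla CHO reporter; stimulus EC10 NKH 477, a water-soluble forskolin. Read: CCF4 460/530 nm ratio. Potency expressed as AC50 for activators or inhibitors.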
row,SMILES,AC50
1,CCOC(=O)COn1c(=O)c(-c2cccs2)[n+]([O-])c2ccccc21,"15.8 µM [rising, partial curve]"
2,O=C(N1CCOCC1)N(CCN1CCOCC1)Cc1cccc(Cl)c1,"0.501 µM [falling, partial curve, poor fit]"
3,CNc1nc(-c2ccc3c(c2)OCO3)nc2ccccc12,"5.01 µM [rising, partial curve]"
4,COCCn1c(=S)[nH]c2cc(C(=O)N3CCN(c4ccccc4OC)CC3)ccc2c1=O,"20 µM [rising, single point]"
5,N[C@@H](Cc1cc(-c2ccc(Cl)cc2Cl)cc(CP(=O)(O)O)c1O)C(=O)O,"31.6 µM [falling, single point]"
6,Cn1c(=O)c(C(=O)NCCO)c(O)c2ccccc21,"0.00316 µM [falling, full curve, poor fit]"
7,Cn1cccc1Cc1nnc(SCC(=O)N2CCc3ccccc32)n1-c1ccc(F)cc1,"5.01 µM [rising, partial curve]"
8,CCCOc1ccc2ccccc2c1/C=N/n1c(C)nnc1-n1nc(C)cc1C,"1 µM [falling, partial curve, poor fit]"
9,NCCC[C@@H](CC(=O)N[C@@H]1CCNC[C@H]1C(=O)N[C@H](CC(=O)N[C@@H](CCC(=O)O)CC(=O)O)Cc1c[nH]c2ccccc12)NC(=O)C[C@H](Cc1c[nH]c2ccccc12)NC(=O)[C@@H]1CNCC[C@H]1N,"7.94 µM [falling, full curve, poor fit]"
10,COc1cccc(Cn2c(=O)c(-c3cccc(C#N)c3)nc3cnc(N4CCOCC4)nc32)c1,"0.501 µM [rising, full curve]"
11,C/C(NC1CCCCC1)=C(/C#N)C(=O)NCCN1CCOCC1,"3.98 µM [falling, full curve]"
12,O=C(COc1ccccc1O)Nc1ccc(Cl)cc1,"2 µM [falling, full curve, poor fit]"
13,CCc1ccccc1NC(=O)N[C@@H](C)C(=O)OC,"25.1 µM [rising, single point]"
14,COCCNS(=O)(=O)c1ccc2c(c1)oc(=O)c1cc(S(=O)(=O)NCCOC)ccc12,"25.1 µM [rising, single point]"
15,COCCn1nnnc1C(C(C)C)N(Cc1cccnc1)Cc1cc2cc(OC)ccc2[nH]c1=O (configuration not stated),"20 µM [rising, single point]"
16,COc1cc2c(=O)n(CC3CCCO3)c(=O)n(CC(=O)Nc3cccc(Cl)c3)c2cc1OC (configuration not stated),"10 µM [rising, single point]"
17,Cc1ccsc1C(=O)OC1CCOC1=O (configuration not stated),"5.01 µM [falling, single point]"
18,S=c1[nH]nc(CSc2nc3ccccc3s2)o1,"12.6 µM [falling, partial curve]"
19,CC1=C(C(=O)Nc2ccccn2)C(c2ccc(Br)cc2)n2ncnc2N1 (configuration not stated),"0.1 µM [falling, full curve]"
20,Cn1c(=O)c2cn(-c3ccc4c(c3)OCCO4)cc2n(C)c1=O,"7.94 µM [rising, partial curve]"
21,Cn1c(C(O)c2ccc3c(c2)OCO3)nc2ccccc21 (configuration not stated),"0.00398 µM [falling, full curve, poor fit]"

# Reformatted as tab-separated lines: part of the list above
row	SMILES	AC50
11	C/C(NC1CCCCC1)=C(/C#N)C(=O)NCCN1CCOCC1	3.98 µM [falling, full curve]
12	O=C(COc1ccccc1O)Nc1ccc(Cl)cc1	2 µM [falling, full curve, poor fit]

# (continued)

row,SMILES,AC50
1,Nc1nc2n(n1)C1(CCCCC1)C1=C(CCCC1)N2,"0.00316 µM [falling, full curve]"
2,Cc1c2ccccc2c(CSC(=N)N)c2ccccc12,"3.98 µM [rising, partial curve]"
3,CCOC(=O)c1ccc(NC(=O)CCc2nc(-c3ccc(C)cc3)no2)cc1,"3.98 µM [falling, partial curve]"
4,COc1cc2nc(CN(C)CC(=O)Nc3ccc(N4CCOCC4)cc3)[nH]c(=O)c2cc1OC,"12.6 µM [rising, single point]"
5,CCN(CCCNC(=O)CCn1c(=O)[nH]c2ccccc2c1=O)c1ccccc1,"0.126 µM [falling, partial curve, poor fit]"
6,O=S1(=O)CCN2C(=N1)Sc1c2ccc2c1CCCC2,"10 µM [rising, single point]"
7,CCOC(=O)c1cc2c(C(F)(F)F)cc(-c3cccnc3)nc2o1,"3.98 µM [rising, single point]"
8,CSc1nc(-c2ccco2)nn1C(=O)c1cccs1,"6.31 µM [falling, partial curve]"
9,C[C@H](CCC(=O)O)[C@H]1CC[C@H]2[C@@H]3CC[C@@H]4C[C@H](O)CC[C@]4(C)[C@H]3CC[C@]12C,"31.6 µM [falling, single point]"
10,Oc1ccc(N2CCN(C(c3cccnc3)c3nnnn3Cc3ccccc3)CC2)cc1 (configuration not stated),"10 µM [falling, partial curve]"
11,COc1ccc(NC(=O)c2ccc3c(c2)OCO3)cc1Cl,"10 µM [rising, single point]"
12,O=C(C1Cc2ccccc2O1)N1CCCCC1 (configuration not stated),"0.398 µM [falling, full curve]"
13,CCOC(=O)c1ccc(NC(=O)CCc2c(C)nc3ncnn3c2C)cc1,"20 µM [rising, single point]"
14,O=C(O)CNC(=O)[C@@H](CS)Cc1ccccc1,"12.6 µM [rising, single point]"
15,Cc1nn(-c2ccccc2)c(C)c1NC(=O)c1ccc(S(=O)(=O)N2CCCC2)cc1,"12.6 µM [falling, partial curve]"
16,COc1cccc(Nc2nc(-c3sc(N)nc3C)cs2)c1,"31.6 µM [falling, single point]"
17,COc1nc2ccccc2cc1-c1noc(-c2cccnc2)n1,"31.6 µM [falling, single point]"
18,N#CC1(c2c(O)nc3n(c2=O)CCCS3)CCCCC1,"0.251 µM [falling, full curve]"
19,CCOC(=O)C1CCCN(Cc2cc(Br)ccc2OC)C1 (configuration not stated),"0.631 µM [rising, full curve]"
20,COc1ccc(NC(=O)CSc2nnc(-c3cccs3)n2-c2ccccc2)cc1,"10 µM [rising, single point]"
21,COc1cccc(-n2c(COc3ccccc3C)nnc2SCC(=O)O)c1,"0.00794 µM [rising, full curve, poor fit]"
